Experimental data taken from PubChem BioAssay AID1347076 (National Center for Advancing Translational Sciences (NCATS), 2019).
The campaign covered roughly 400,000 compounds. About 13,000 (3.2%) were called active. The shares of active, inactive and inconclusive entries below differ from those in the screen. Calls come from the whole dose curve; as a rule, active = well fitted cell-killing curve with a large enough effect; inconclusive = small, poorly fitted or top-dose-only effect, or effect the other way; inactive = flat fitted curve, though single readings scatter. Potencies beside an inconclusive call are fits to weak or partial responses and may not hold up.
% is set by controls: 0 for no effect and ±100 for the full control effect; potency is the fitted concentration of half-maximal effect.

Assay: qHTS assay for MDR1-selective chemotherapeutics: Primary screen using the drug-selected MDR subline cells KB-V1; note: nearly all actives have a fitted effect of over 60% in size
Conditions: KB-V1 MDR cells viability, CellTiter-Glo, 72 h; activity change, negative = cytotoxicity: at 46.1 µM (top of the series)
How it was run: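 KB-V1 cells (P-gp-expressing MDR subline of KB-3-1) in phenol-red-free DMEM with 10% FBS were exposed to library compounds over a concentration series for 72 h at 37 degrees C. Viability read by CellTiter-Glo luminescence; concentration-effect curves fitted after normalization.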
In the case of `Cc1c(Cl)cccc1Nc1nc(N)nc(CSC(=S)N2CCOCC2)n1`, the Potency is reported as inconclusive: 20.6 µM [cytotoxic, partial curve].
With `Cc1cccc(NC(=O)CSCC(=O)Nc2sccc2C#N)c1` the Potency was inconclusive: 18.4 µM [cytotoxic, single point].
For `Cc1ccc(NC(=O)c2cccc3c2C(=O)N(C2CCCCC2)C3)cc1`, the Potency was inconclusive: 29.1 µM [cytotoxic, single point].
With `CCC(C)NC(=O)c1cn(CC)c2ccc(S(=O)(=O)N3CCCCCC3)cc2c1=O` (stereo not given) the Potency was inconclusive: 2.06 µM [cytotoxic, full curve, poor fit].
In the case of `COc1ccc(NC(=O)c2oc3ccccc3c2NC(=O)Cc2coc3ccc(C)cc23)cc1`, the “activity change, negative = cytotoxicity” value is reported as inactive: 3.25%.
With `Cc1cc(C)c(S(=O)(=O)N2CCN(S(=O)(=O)N3CCOCC3)CC2)c(C)c1` the Potency was inconclusive: 7.31 µM [cytotoxic, partial curve, poor fit].
With `OC(COc1ccc2c(c1)OCO2)CN1CCCC1` (stereo not given) the Potency was inconclusive: 18.4 µM [rising, partial curve, poor fit].
For `CCN(CC)C(=O)/C(=C/c1ccc2c(c1)OCO2)NC(=O)c1ccc(Br)cc1`, the Potency was inconclusive: 23.1 µM [cytotoxic, single point].
With `Cc1c(NS(C)(=O)=O)cccc1-c1nc2cccnc2s1` the Potency was inconclusive: 20.6 µM [cytotoxic, single point].
For `Cc1ccc2c(c1)N(Cc1ccccn1)C(=O)C(C)O2` (stereo not given), the Potency was inconclusive: 16.4 µM [cytotoxic, partial curve, poor fit].
For `O=C(CCN1C(=O)C2C3C=CC(C3)C2C1=O)NCCN1CCCc2ccccc21` (stereo not given), the Potency was inconclusive: 2.91 µM [cytotoxic, full curve, poor fit].
With `O=C(CSc1nc2ncccc2o1)Nc1cccc(C(F)(F)F)c1` the “activity change, negative = cytotoxicity” value was inactive: 0%.
For `O=C(CCC(=O)c1cccs1)NCC(=O)Nc1ccc(F)c(F)c1F`, the Potency was inconclusive: 29.1 µM [rising, single point].
For `O=C(NCC(c1cccnc1)N1CCOCC1)NC1CCCCC1` (stereo not given), the Potency was inconclusive: 32.6 µM [rising, single point].
With `O=[N+]([O-])c1cccc(/C=C/c2ccccc2)c1` the “activity change, negative = cytotoxicity” value was inactive: 7.44%.
In the case of `Cc1ccc(C(=O)C[n+]2cccc3ccccc32)cc1`, the Potency is reported as inconclusive: 25.9 µM [rising, partial curve].
With `C/C(=N\Nc1cccc(C(F)(F)F)c1)c1ccc(O)cc1` the “activity change, negative = cytotoxicity” value was inactive: -27.6%.
In the case of `CCCCN(CC)C(=O)c1nn(-c2ccc(OC)cc2)c(=O)c2c1c1ccccc1n2C`, the Potency is reported as inconclusive: 18.4 µM [cytotoxic, single point].
With `Cc1cccc(-n2c(SCC(=O)NC3CCCC3)nnc2-c2ccoc2C)c1` the Potency was inconclusive: 16.4 µM [cytotoxic, single point].
With `Cc1ccc(S(=O)(=O)N2CCN(C(=O)c3c(C)nn(-c4ccccc4)c3Cl)CC2)cc1` the Potency was active: 10.3 µM.
With `CCOC(=O)CC(NC(=O)Cn1nnc(-c2ccccc2F)n1)c1ccc(OC)cc1` (stereo not given) the Potency was inconclusive: 4.61 µM [cytotoxic, partial curve].
For `CCN=C1SC(CC(=O)NCCc2ccc(OC)cc2)C(=O)N1CC` (stereo not given), the Potency was inconclusive: 18.4 µM [cytotoxic, partial curve, poor fit].
For `Cc1cccc(OCCNc2cc(N3CCN(CCO)CC3)ccc2[N+](=O)[O-])c1`, the Potency was active: 18.4 µM.
With `O=c1c2ccccc2[nH]c(=S)n1Cc1ccccc1Cl` the “activity change, negative = cytotoxicity” value was inactive: 10.9%.
For `Cc1ccc(OCCCCN2CCC(C)CC2)c(Br)c1`, the Potency was inconclusive: 16.4 µM [cytotoxic, partial curve, poor fit].
With `O=[N+]([O-])/C=C/c1cn(Cc2ccc(F)cc2)c2ccccc12` the “activity change, negative = cytotoxicity” value was inactive: 13.4%.
With `CCOC(=O)N1CCN(C(=O)CSc2nc3ccccc3c(=O)n2-c2ccccc2)CC1` the Potency was inconclusive: 18.4 µM [cytotoxic, single point].
In the case of `O=C(Nc1ccccn1)C1CCN(S(=O)(=O)c2ccc3c(c2)OCCO3)CC1`, the “activity change, negative = cytotoxicity” value is reported as inactive: -5.52%.
With `CN1OC[C@@H]2CN(C(=O)CCc3ccccc3)[C@H](c3cccc(N4CCOCC4)c3)C[C@@H]21` the “activity change, negative = cytotoxicity” value was inactive: -7.1%.
With `CCc1nc(N2CCCC2C(=O)O)c2oc3ccccc3c2n1` (stereo not given) the “activity change, negative = cytotoxicity” value was inactive: 0%.
In the case of `CCOc1ccc2[nH]c(=O)c(CN(Cc3ccco3)Cc3nnnn3Cc3ccccc3)cc2c1`, the Potency is reported as inconclusive: 29.1 µM [cytotoxic, single point].
With `Cc1cccc(NC(=O)c2csnn2)n1` the activity change, negative = cytotoxicity was inconclusive: 33.4%.
In the case of `O=C(NCc1ccco1)C1CN(S(=O)(=O)c2ccccc2)CCN1S(=O)(=O)c1ccccc1` (stereo not given), the Potency is reported as inconclusive: 7.31 µM [cytotoxic, partial curve].
In the case of `COc1cccc(C(=O)N2CCC[C@H]2C(=O)N2CCC[C@H]2C(=O)N[C@H](C)c2ccccc2)c1`, the “activity change, negative = cytotoxicity” value is reported as inactive: 0%.
In the case of `CCOC(=O)CN1C(c2ccc(O)cc2)Nc2ccc(Br)cc2C1c1ccccc1` (stereo not given), the Potency is reported as inconclusive: 29.1 µM [cytotoxic, single point].
With `CCn1c(=O)c(C(=O)NCc2ccccc2)c(O)c2ccccc21` the “activity change, negative = cytotoxicity” value was inactive: -4.15%.
In the case of `Cc1cccc2cc(CN(CC3CCCO3)C(c3nnnn3Cc3ccco3)C(C)C)c(=O)[nH]c12` (stereo not given), the Potency is reported as inconclusive: 18.4 µM [cytotoxic, single point].
For `CCCN1CN=C(NS(=O)(=O)c2ccc(NC(C)=O)cc2)NC1`, the Potency was inconclusive: 14.6 µM [rising, single point].
For `COc1ccc(OC)c(-n2c(CN3CCC(C(N)=O)CC3)nc3ccccc3c2=O)c1`, the “activity change, negative = cytotoxicity” value was inactive: -14.6%.
For `O=C(Nc1nc2ccccc2[nH]1)C1CCCO1` (stereo not given), the “activity change, negative = cytotoxicity” value was inactive: 11.6%.
For `CCN(C(=O)CSc1ccc2ccccc2n1)C1CCCCC1`, the Potency was active: 18.4 µM.
With `CCN(CC)c1nc(C#N)cc(-c2ccc(OC)cc2)n1` the Potency was active: 5.8 µM.
In the case of `COc1ccc(CCNC(=O)C(=O)NCc2ccc(C(C)C)cc2)cc1OC`, the Potency is reported as inconclusive: 29.1 µM [cytotoxic, single point].
With `CCN(Cc1ccccc1)Cc1nc(CCc2ccccc2)no1` the Potency was inconclusive: 0.0092 µM [rising, full curve, poor fit].
With `COc1ccc(-c2noc(-c3ccc(N4CCN(c5ccccc5OC)CC4)c([N+](=O)[O-])c3)n2)cc1` the Potency was inconclusive: 20.6 µM [rising, partial curve, poor fit].
In the case of `CCCNC(=O)C1(C)CCN(Cc2ccc3ccccc3c2Br)C1` (stereo not given), the “activity change, negative = cytotoxicity” value is reported as inactive: -0.523%.
For `O=C1CCCN1c1ccc(C(=O)N(Cc2nnc(-c3ccccc3Cl)o2)C2CC2)cc1`, the Potency was inconclusive: 7.31 µM [cytotoxic, partial curve].
In the case of `COc1ccc(-c2cc(C(=O)N3CCC3)c3ccccc3n2)cc1OC`, the Potency is reported as inconclusive: 6.51 µM [cytotoxic, partial curve, poor fit].
For `COC(=O)c1nn(C23CC4CC(CC(C4)C2)C3)c2c1C(=O)N(c1ccc(F)cc1)C2=O`, the Potency was inconclusive: 25.9 µM [rising, partial curve, poor fit].
For `CCCCCCC1CC(CCC(=O)Nc2ccc([N+](=O)[O-])cc2)C(=O)O1` (stereo not given), the Potency was inconclusive: 29.1 µM [rising, single point].
With `C/C(N)=C(/C#N)C(=O)CSc1cc(Cl)ccc1Cl` the Potency was inconclusive: 20.6 µM [cytotoxic, single point].
With `Cc1nc2ccccc2c2oc(C(=O)N3CCN(c4ccc([N+](=O)[O-])cc4)CC3)cc12` the Potency was inconclusive: 0.92 µM [cytotoxic, full curve, poor fit].
In the case of `CCCc1cc(=O)[nH]c(Nc2cc(C)cc(C)c2)n1`, the activity change, negative = cytotoxicity is reported as inconclusive: -0.431%.
With `Cn1nc(-c2ccccc2)c2ncc(C(F)(F)F)cc21` the “activity change, negative = cytotoxicity” value was inactive: 26.2%.
For `CCCN1CCN(CC2=C(C(=O)OCC)C(c3ccc(OC(C)C)cc3)NC(=O)N2)CC1` (stereo not given), the “activity change, negative = cytotoxicity” value was inactive: 0%.
With `CCOC(=O)N1CCN(S(=O)(=O)CCNC(=O)c2ccc(OC)cc2)CC1` the Potency was inconclusive: 18.4 µM [cytotoxic, partial curve, poor fit].
For `CC/C(=N\NC(=S)Nc1cccc(C)c1)c1ccccc1`, the “activity change, negative = cytotoxicity” value was inactive: -22.6%.
In the case of `COCCNC(=O)C1(C)CCCN(C(=O)c2ccc(N(C)C)cc2)C1` (stereo not given), the “activity change, negative = cytotoxicity” value is reported as inactive: -6.35%.
For `COc1ccc(Cc2n[nH]c(=O)c3ccccc23)cc1OC`, the Potency was inconclusive: 10.3 µM [cytotoxic, partial curve].
For `COc1cc(NC(=O)c2ccc(N)nc2)cc(C(=O)Nc2cccc(C(F)(F)F)c2)c1`, the Potency was inconclusive: 9.2 µM [rising, single point].
For `OCc1ccccc1-c1cnc2sc(NCc3ccc(F)cc3)nn12`, the “activity change, negative = cytotoxicity” value was inactive: -12.2%.
For `CCOc1ccc(-c2nc(CSCC(=O)NCCc3ccc(OCC)c(OCC)c3)c(C)o2)cc1`, the Potency was inconclusive: 29.1 µM [cytotoxic, partial curve, poor fit].
In the case of `O=C(O)c1cnc(-c2ccccc2)nc1Oc1ccccc1`, the Potency is reported as inconclusive: 29.1 µM [rising, single point].
In the case of `COc1cc(NC(=O)C(=O)NNC(=O)C2CCCCC2)c(OC)cc1Cl`, the Potency is reported as inconclusive: 2.59 µM [cytotoxic, partial curve, poor fit].
With `COc1ccccc1Cn1c(=S)[nH]c2cc(C(=O)NCC3CCCO3)ccc2c1=O` (stereo not given) the Potency was inconclusive: 25.9 µM [cytotoxic, single point].
In the case of `COc1ccc(-c2n[nH]c(=S)n2-c2ccc(C)cc2)cc1OC`, the “activity change, negative = cytotoxicity” value is reported as inactive: -11.9%.
With `CSc1nc2c(sc3ccccc32)c(=O)n1Cc1ccc(C)cc1` the Potency was inconclusive: 23.1 µM [rising, single point].
With `COC(=O)N/N=C/c1cn(CCCOc2ccc(C)cc2)c2ccccc12` the Potency was active: 18.4 µM.
In the case of `Cc1ccn2c(=O)c(C(=O)NC3CCCCC3C)c(O)nc2c1` (stereo not given), the Potency is reported as inconclusive: 5.8 µM [cytotoxic, full curve, poor fit].
With `O=C(N/N=C/C(Br)=C/c1ccccc1)C1CC1` the Potency was inconclusive: 29.1 µM [cytotoxic, single point].
